Assay results reported in PubChem BioAssay AID1347075 (National Center for Advancing Translational Sciences (NCATS), 2019).
The campaign covered roughly 400,000 compounds. About 5,500 (1.4%) were called active. Inconclusive means that the source gave no clear call. Such entries were picked first, then a sample of the others. Calls come from the whole dose curve; as a rule, active = well fitted cell-killing curve with a large enough effect; inconclusive = small, poorly fitted or top-dose-only effect, or effect the other way; inactive = flat fitted curve, though single readings scatter. Potencies beside an inconclusive call are fits to weak or partial responses and may not hold up.

Assay: qHTS assay for MDR1-selective chemotherapeutics: Primary screen using the parental adenocarcinoma cell KB-3-1; note: nearly all actives have a fitted effect of over 60% in size
Conditions: KB-3-1 viability, CellTiter-Glo ATP luminescence, 72 h; activity change, negative = cytotoxic: at 46.1 µM (top of the series)
Procedure, shortened: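 Here the drug-naive KB-3-1 line serves as comparator for MDR sub-line selectivity; cells received compound titrations, 72 h at 37 °C, then CellTiter-Glo readout.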
% is set by controls: 0 for no effect and ±100 for the full control effect; potency is the fitted concentration of half-maximal effect.

SMILES	Potency	activity change, negative = cytotoxic
Nc1nc(Nc2ccccc2)nc(NCc2ccccc2)c1[N+](=O)[O-]	inconclusive: 29.1 µM [cytotoxic, single point]	–
O=C(Nc1ccccc1N1CCCC1)C1CCN(S(=O)(=O)c2ccc(F)cc2)CC1	inconclusive: 29.1 µM [cytotoxic, single point]	–
COC(=O)C1(Cc2ccc(O)c(CC3OC3(C)C)c2)OC(=O)C(O)=C1c1ccc(O)cc1 (stereo not drawn)	–	inconclusive: 0%
CCOc1ccccc1C(=O)N1CCN(c2ccc(C(F)(F)F)cn2)CC1	inconclusive: 16.4 µM [cytotoxic, single point]	–
CCc1ccc2c(c1)[C@H]1OCC[C@H]1[C@@H](c1cccs1)N2	active: 13 µM	–
CC(=O)c1ccc(-n2cc(-c3ccc(C(C)(C)C)cc3)[n+]3c2SCCC3)cc1	inconclusive: 5.17 µM [cytotoxic, partial curve, poor fit]	–
COc1cc(OC)c(OC)cc1CN1CCc2nc(N3CCN(c4ccccc4F)CC3)ncc2C1	inconclusive: 20.6 µM [cytotoxic, partial curve, poor fit]	–
CC(C)(C)NC(=O)COC(=O)CNC(=O)C1CCCCC1	inconclusive: 16.4 µM [rising, single point]	–
N#Cc1cccc(NC(=O)CNc2cccc(S(=O)(=O)N3CCCC3)c2)c1	inconclusive: 23.1 µM [cytotoxic, single point]	–
Cc1cc(NCCCN2CCOCC2)n2c(nc3ccccc32)c1C#N	inactive	–
Cn1cnnc1SCC(=O)Nc1ncc([N+](=O)[O-])s1	inconclusive: 0.82 µM [cytotoxic, full curve, poor fit]	–
O=C(NCC(=O)N(c1ccc2c(c1)OCO2)C(C(=O)NC1CCCC1)c1ccncc1)c1ccco1 (stereo not drawn)	inconclusive: 7.31 µM [cytotoxic, partial curve]	–
Oc1c(C(c2ccccn2)N2CCCCC2)cc(Cl)c2cccnc12 (stereo not drawn)	inconclusive: 23.1 µM [cytotoxic, single point]	–
CC1CCCCN1C(=O)COC(=O)c1ccc(S(C)(=O)=O)c([N+](=O)[O-])c1 (stereo not drawn)	inconclusive: 16.4 µM [cytotoxic, partial curve]	–
COc1cc(OC)c(OC)cc1CN(C)C(c1ccccc1)c1nnnn1-c1ccccc1C (stereo not drawn)	inconclusive: 29.1 µM [cytotoxic, single point]	–
Cc1noc(C)c1S(=O)(=O)N(C)C[C@@H]1OCc2cnnn2CCCC(=O)N([C@@H](C)CO)C[C@H]1C	inactive	–
Cc1ccc(-c2csc(Nc3ccccc3)[n+]2CCc2ccccc2)cc1	inconclusive: 16.4 µM [cytotoxic, single point]	–
CCN(CC)c1ccc(NC(=O)c2cccnc2)cc1	inconclusive: 20.6 µM [cytotoxic, single point]	–
O=C(/C=C/c1ccccc1)NC(NC(=S)Nc1cccc(O)c1)C(Cl)(Cl)Cl (stereo not drawn)	inconclusive: 29.1 µM [cytotoxic, single point]	–
COc1ccc(/C=C/C(=O)c2c(O)cc(C)oc2=O)c(OC)c1	inconclusive: 20.6 µM [cytotoxic, single point]	–
C/C(=N\O)C(=O)OC1CC(C)CCC1C(C)C (stereo not drawn)	inactive	–
O=C1CN(C(=O)c2ccc(Br)o2)C(c2ccccc2)c2cc(F)ccc2N1 (stereo not drawn)	inactive	–

SMILES	Potency	activity change, negative = cytotoxic
C=CCn1c(-c2ccccc2)cc(SC)c(C#N)c1=O	inactive	–
Cn1cc(C(=O)CCl)c2ccccc21	inconclusive: 29.1 µM [cytotoxic, single point]	–
COc1cccc(-c2nc(N3CCCCC3)c3ccccc3n2)c1O	inconclusive: 20.6 µM [cytotoxic, partial curve, poor fit]	–
O=C(Nc1ccccc1)C1=C[C@H](c2ccc(Br)cc2)C[C@H](OCc2ccc(CO)cc2)O1	inactive	–
COc1cccc(Nc2nc(N)nc(-c3oc4ccccc4c3C)n2)c1	inconclusive: 18.4 µM [cytotoxic, single point]	–
S=C(NC1CCCCC1)N1CCOCCOCCN(C(=S)NC2CCCCC2)CCOCCOCC1	inconclusive: 29.1 µM [cytotoxic, single point]	–
Cc1cc(C)c2oc(-c3cc(NC(=O)Cc4ccccc4)ccc3Cl)nc2c1	inactive	–
Cc1cc(C)c(S(=O)(=O)c2ccccc2C(C)C)c(=O)[nH]1	inactive	–
COc1cc(C(=O)Nc2ccc(Br)cc2C(=O)c2cc(OC)c(OC)c(OC)c2)cc(OC)c1OC	inconclusive: 18.4 µM [cytotoxic, single point]	–
Cc1ccc2c(c1)=N/C(=N\c1[nH]c(O)c3ccccc13)N=2	inconclusive: 20.6 µM [cytotoxic, single point]	–
CN(CP(=O)(O)CN(C)S(C)(=O)=O)S(C)(=O)=O	inactive	–
CC(C)(C)NC(=O)CCN(/N=C/c1ccc([N+](=O)[O-])o1)C1=NS(=O)(=O)c2ccccc21	active: 18.4 µM	–
Cc1ccc(NC(=O)CSc2nc3c(cc2C#N)C(=O)CCC3)cc1S(=O)(=O)N(C)C	inactive	–
O=C(Nc1c(C(=O)c2ccccc2)oc2ccccc12)c1ccc(F)cc1	inactive	–
CC1CCCCN1C(=O)CCS(=O)(=O)Cc1ccccc1 (stereo not drawn)	inconclusive: 3.26 µM [rising, partial curve, poor fit]	–
CCOC(=O)CSc1nc2c(c(=O)[nH]1)C(C)(CC)Cc1ccccc1-2 (stereo not drawn)	inconclusive: 16.4 µM [cytotoxic, single point]	–
Cc1ccc(-n2c(-c3ccccc3)c[nH]c2=S)cc1	inconclusive: 16.4 µM [cytotoxic, single point]	–
CC(=O)Cc1nsc(NC(=O)c2ccc(-c3cccc(C(F)(F)F)c3)o2)n1	inconclusive: 14.6 µM [cytotoxic, partial curve, poor fit]	–
CCCCCCCCN1C(=O)[C@H](CC(=O)NCCCOCCCC)C[C@@]2(C(=O)OC)CCCCC=C12	inconclusive: 29.1 µM [cytotoxic, single point]	–

A second format for some results above.
Cc1ccc2c(c1)=N/C(=N\c1[nH]c(O)c3ccccc13)N=2
  Potency: inconclusive: 20.6 µM [cytotoxic, single point]
CN(CP(=O)(O)CN(C)S(C)(=O)=O)S(C)(=O)=O
  Potency: inactive
